## Drug screen on melanoma cell lines: apoptosis marker

From a melanoma drug combination screen (doi:10.1371/journal.pone.0140310); values rounded.

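Human melanoma cells were exposed to two drugs together for 72 h in 1,536-well plates and read by automated microscopy after fixing and staining. Values are the share of nuclei positive for cleaved PARP as a percentage of the same share in the DMSO control: 100 is the control level, higher means more apoptosis. Concentrations were fixed for each drug; these are the higher of two levels. The file gives one value for each pair and line, without errors, so small differences may be noise. Basal and induced levels differ widely between cell lines.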
Only some of the drugs and lines screened are listed, without regard to their results.
An entry leaves out what has no value listed here.
A dash means that no value is listed here.

Drugs:
GW441756, 2 µM: Cn1cc(/C=C2\C(=O)Nc3cccnc32)c2ccccc21
NVP-TAE684, 0.4 µM: COc1cc(N2CCC(N3CCN(C)CC3)CC2)ccc1Nc1ncc(Cl)c(Nc2ccccc2S(=O)(=O)C(C)C)n1
bortezomib, 0.005 µM: CC(C)C[C@H](NC(=O)[C@H](Cc1ccccc1)NC(=O)c1cnccn1)B(O)O
ABT-263, 2 µM: CC1(C)CCC(c2ccc(Cl)cc2)=C(CN2CCN(c3ccc(C(=O)NS(=O)(=O)c4ccc(N[C@H](CCN5CCOCC5)CSc5ccccc5)c(S(=O)(=O)C(F)(F)F)c4)cc3)CC2)C1
GSK650394, 0.8 µM: O=C(O)c1ccc(-c2c[nH]c3ncc(-c4ccccc4)cc23)cc1C1CCCC1
selumetinib, 0.075 µM: Cn1cnc2c(F)c(Nc3ccc(Br)cc3Cl)c(C(=O)NOCCO)cc21
STA-4783, 0.03 µM: CN(NC(=O)CC(=O)NN(C)C(=S)c1ccccc1)C(=S)c1ccccc1
crizotinib, 1 µM: C[C@@H](Oc1cc(-c2cnn(C3CCNCC3)c2)cnc1N)c1c(Cl)ccc(F)c1Cl
dorsomorphin, 2 µM: c1cc(-c2cnn3cc(-c4ccc(OCCN5CCCCC5)cc4)cnc23)ccn1
pazopanib, 2 µM: Cc1ccc(Nc2nccc(N(C)c3ccc4c(C)n(C)nc4c3)n2)cc1S(N)(=O)=O
tozasertib, 0.03 µM: Cc1cc(Nc2cc(N3CCN(C)CC3)nc(Sc3ccc(NC(=O)C4CC4)cc3)n2)n[nH]1
tamatinib, 2 µM: COc1cc(Nc2ncc(F)c(Nc3ccc4c(n3)NC(=O)C(C)(C)O4)n2)cc(OC)c1OC

Pair	WM1716	UACC-62	LOX IMVI	G-361	RPMI-7951	LB2518-MEL	WM3619	SK-MEL-28	501mel	C32	WM1745	COLO 829
STA-4783 + crizotinib	139	153	173	122	51.2	585	364	127	-	2850	175	119
pazopanib + dorsomorphin	38.9	318	69.8	536	121	121	172	170	258	106	-	114
GW441756 + tamatinib	203	240	148	104	58.9	89.4	117	72.7	146	95.3	209	92.1
GW441756 + NVP-TAE684	89.4	172	106	74.4	244	82.0	101	58.1	55.4	96.0	129	97.9
STA-4783 + dorsomorphin	37.7	250	99.8	633	335	-	472	522	-	387	327	76.1
selumetinib + STA-4783	142	282	38.5	780	189	1320	3110	161	-	1840	150	578
NVP-TAE684 + bortezomib	14400	342	26.3	4950	288	6390	2340	337	841	297	-	2280
GW441756 + dorsomorphin	32.2	181	56.3	274	79.8	120	142	226	105	298	234	178
bortezomib + tozasertib	15800	243	453	4660	2170	6430	4590	319	-	660	617	4970
tamatinib + GSK650394	127	107	76.6	202	108	215	117	136	-	37.2	164	148
pazopanib + GW441756	92.0	263	51.2	188	39.5	211	110	64.9	54.7	66.7	-	83.3
selumetinib + crizotinib	101	320	48.5	166	256	346	150	95.8	-	393	183	91.5
pazopanib + NVP-TAE684	135	335	54.7	251	140	124	120	107	85.9	88.3	-	86.3
tamatinib + NVP-TAE684	4170	328	235	170	309	98.8	185	201	744	145	674	88.6
tamatinib + pazopanib	102	197	356	121	171	128	185	167	-	151	300	127
tozasertib + ABT-263	2300	354	165	228	105	428	180	104	-	972	3710	139
bortezomib + crizotinib	10700	291	191	9990	717	5540	1840	335	-	1270	300	4440
GSK650394 + crizotinib	34.2	126	94.4	192	204	106	95.5	159	-	49.3	121	202
dorsomorphin + tozasertib	173	422	40.8	217	148	180	149	143	239	125	-	208
selumetinib + NVP-TAE684	140	501	153	138	204	-	124	167	-	120	-	162
tozasertib + GW441756	169	139	90.8	113	175	152	117	164	210	93.1	-	63.6
bortezomib + selumetinib	11700	304	243	10200	1430	9040	2260	179	-	4280	386	3760
GSK650394 + NVP-TAE684	171	71.2	204	57.0	138	39.2	122	188	59.4	252	162	138
GSK650394 + dorsomorphin	55.5	97.8	49.9	286	114	85.3	94.8	284	210	137	156	64.6
NVP-TAE684 + STA-4783	144	526	88.8	347	47.9	806	1240	370	27000	1020	916	428
selumetinib + GSK650394	197	171	141	217	116	144	135	294	-	186	72.8	104
crizotinib + pazopanib	104	216	68.9	175	153	578	93.3	236	-	87.9	284	63.9
STA-4783 + pazopanib	256	149	52.0	257	168	315	1380	181	-	2390	159	126
NVP-TAE684 + crizotinib	85.2	341	73.3	117	156	73.2	96.7	275	101	366	-	106
STA-4783 + tozasertib	66.0	158	94.7	361	98.5	1000	633	149	-	4340	232	135
STA-4783 + GSK650394	32.6	160	66.0	759	165	354	524	525	-	4310	307	453
STA-4783 + tamatinib	289	175	539	718	338	1210	1080	183	-	1830	1340	258
bortezomib + ABT-263	14900	221	227	8640	828	11700	3570	237	-	444	1410	3360
pazopanib + tozasertib	23.4	159	158	209	99.7	138	87.3	110	-	141	123	87.4
ABT-263 + pazopanib	1360	185	147	267	49.1	225	105	274	-	107	1230	105

Once more, the final 3:

{"pair": "bortezomib + ABT-263", "WM1716": 14900, "UACC-62": 221, "LOX IMVI": 227, "G-361": 8640, "RPMI-7951": 828, "LB2518-MEL": 11700, "WM3619": 3570, "SK-MEL-28": 237, "C32": 444, "WM1745": 1410, "COLO 829": 3360}
{"pair": "pazopanib + tozasertib", "WM1716": 23.4, "UACC-62": 159, "LOX IMVI": 158, "G-361": 209, "RPMI-7951": 99.7, "LB2518-MEL": 138, "WM3619": 87.3, "SK-MEL-28": 110, "C32": 141, "WM1745": 123, "COLO 829": 87.4}
{"pair": "ABT-263 + pazopanib", "WM1716": 1360, "UACC-62": 185, "LOX IMVI": 147, "G-361": 267, "RPMI-7951": 49.1, "LB2518-MEL": 225, "WM3619": 105, "SK-MEL-28": 274, "C32": 107, "WM1745": 1230, "COLO 829": 105}